# Source: PubChem BioAssay AID1439 (NMMLSC, 2008)
# By UniProt entry, the sequences of proteins in these tests, tags left out.
# UniProt P09471, whole entry, looked up: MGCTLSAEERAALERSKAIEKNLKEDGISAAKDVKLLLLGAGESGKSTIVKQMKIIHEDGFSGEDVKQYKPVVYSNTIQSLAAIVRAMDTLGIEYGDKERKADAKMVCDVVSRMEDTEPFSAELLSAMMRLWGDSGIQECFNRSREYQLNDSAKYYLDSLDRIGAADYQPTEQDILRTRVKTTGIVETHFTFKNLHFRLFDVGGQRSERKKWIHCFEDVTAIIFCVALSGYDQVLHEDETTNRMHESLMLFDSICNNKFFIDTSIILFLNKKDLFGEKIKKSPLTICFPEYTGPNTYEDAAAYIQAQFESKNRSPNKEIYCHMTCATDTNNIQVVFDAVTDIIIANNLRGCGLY
# Hit rate of the full screen: of about 220,000 compounds, about 770 (0.35%) were called active. Inconclusive means that the source gave no clear call. Such entries were picked first, then a sample of the others. No stated cut-off is given here; in the data, active means binding response below about 49% or above about 150%; inconclusive means no clear call, values can overlap the other calls; inactive means in between.
# Molecular target: Guanine nucleotide-binding protein G(o) subunit alpha (Homo sapiens) (UniProt P09471)
# Assay: RGS7-Galphao binding modulators, primary screen, biochemical, multiplexed bead flow cytometry (AID 1439);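 further: fluorescent Galphao held in activated GDP-AlF4 state binding bead-coupled RGS7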
# Details: at 10 µM, actives lie on both sides
row,SMILES,binding response (% of control)
1,O=C(N/N=C/c1ccc(F)cc1)c1cc(-c2ccc3c(c2)OCO3)n[nH]1,inconclusive: 114%
2,O=C(C1CCCN1S(=O)(=O)c1cccc2nsnc12)N1CCCCC1 (centres undefined),inconclusive: 99.2%
3,CCc1ccc(/C=N/N2CCN(c3ccccn3)CC2)cc1,inconclusive: 88.4%
4,CCOC(=O)C1(CC2CCCCO2)CCN(C(=O)Nc2ccccc2CC)CC1 (centres undefined),inactive: 105%
5,CN(C(=O)Nc1cnccc1C(F)(F)F)C1CCCCC1,inconclusive: 70.1%
6,Cc1nn(-c2ccc(C(=O)O)cc2)c2c1C(=O)CC(C)(C)C2,inconclusive: 80.3%
7,CS(=O)(=O)Nc1nc2n(n1)C(c1ccccc1)CC(c1ccccc1)N2 (centres undefined),inconclusive: 109%
8,O=C(NCCCN1CCOCC1)/C(=C/c1cccnc1)NC(=O)c1ccccc1,inactive: 102%
9,O=C(Nc1ccc(C(=O)NC2CCCCC2)cc1)c1cccnc1,inconclusive: 109%
10,Cc1nnsc1C(=O)NNC(=O)c1ccc(C(F)(F)F)cc1,inconclusive: 114%
11,O=C(O)c1ccccc1Sc1ncnc2sccc12,inconclusive: 109%
12,CC1CC(C)(C)CC2(C1)NC(=O)N(CC(=O)NCCc1ccc3c(c1)OCCO3)C2=O (centres undefined),inconclusive: 118%
13,Cc1ccc(NC(=O)C(Cc2ccccc2)n2cccc2)cc1 (centres undefined),inconclusive: 106%
14,COC(=O)/C(=C\C(=O)c1ccccc1)Nc1ccc(OC)cc1,inconclusive: 74.2%
15,Cc1cc(NCc2ccccn2)n2ncc(-c3ccccc3)c2n1,inconclusive: 212%
16,CCOC(=O)c1cc(-c2c(Cl)cccc2Cl)no1,inconclusive: -5.44%
17,CCN(CC)S(=O)(=O)c1cc(NC(=O)[C@@H](NC(N)=O)C(C)C)ccc1C,inconclusive: 117%
18,O=C1Nc2ccc(S(=O)(=O)N3CCCCCC3)c3cccc1c23,inactive: 87.8%
19,CNC(=O)CCC(=O)Nc1ccc(C)cc1,inactive: 94.4%
20,Cc1cc(Oc2ncccc2[N+](=O)[O-])c2cc(Cl)ccc2n1,inconclusive: 66.4%

row,SMILES,binding response (% of control)
1,C/C(Nc1ccccc1C(F)(F)F)=C1/CCOC1=O,inconclusive: 89.2%
2,CCOC(=O)CCNCc1ccc(OC)c(OC)c1,inconclusive: 123%
3,CN(n1cnc2ccccc2c1=O)S(C)(=O)=O,inconclusive: 74.6%
4,CN(C)C(=O)c1ccc(-c2cc(C(F)(F)F)n(C)n2)s1,inconclusive: 51.6%
5,COc1ccccc1N(C(=O)c1cncc(Br)c1)c1nc(-c2ccc(C)cc2)cs1,inactive: 103%
6,CC(C)C[C@H](NC(=O)c1nc[nH]c1C(=O)N1CCc2ccccc2C1)C(=O)OCc1ccccc1,inconclusive: 101%
7,COC(=O)[C@H](CCSC)NC(=O)c1cccnc1SC,inconclusive: -56.4%
8,O=C1CC(c2ccccc2)CN1C(=O)c1cccnc1 (centres undefined),inconclusive: 98.9%
9,CC1CCCC(C)N1S(=O)(=O)c1ccc(S(=O)(=O)N2CCOCC2)cc1 (centres undefined),inconclusive: 108%
10,COc1ccc(O)c(C(=O)c2cnc3c(c2)CN(C)C(=O)N3)c1,inconclusive: 88.4%
11,CCOC(=O)CSc1ccc(C(=O)Nc2ccc(OC)cc2)cn1,inconclusive: 101%
12,C/C=C(\C)C(=O)NCCN1C2=NC[C@H](Cc3ccccc3)N2C[C@H]1Cc1ccc(O)cc1,active: 20.4%
13,CC(=O)Nc1cccc(C(=O)/C=C/c2ccc[nH]2)c1,inconclusive: 182%
14,COc1ccc(-c2cnc(N)nc2-c2ccc(OCc3ccccc3)cc2O)cc1,inconclusive: -276%
15,CCS(=O)(=O)N1Cc2ccccc2CC1C(=O)Nc1ncc(C)s1 (centres undefined),inconclusive: 101%
16,COCCn1c(SCC(=O)N2CCc3ccccc3C2)nc2cc(Cl)ccc2c1=O,inactive: 101%
17,Cc1cc(NC(=O)c2ccc(N3CCCC3)c([N+](=O)[O-])c2)no1,inconclusive: 66%
18,CC1(C)CC(c2nc(-c3ccc([N+](=O)[O-])cc3)cs2)CCO1 (centres undefined),inactive: 101%
19,CC(C)N(c1ccccc1)c1ccc(NC(=S)NCCN(C)C)cc1,inconclusive: 110%
20,CCN(CC)c1ccc(/C=c2/sc3nnc(-c4ccccc4C)n3c2=O)cc1,inactive: 128%

row,SMILES,binding response (% of control)
1,CN1CCN(NC(=O)c2ccc(S(=O)(=O)N3CC4(C)CC3CC(C)(C)C4)cc2)CC1 (centres undefined),inconclusive: 181%
2,O=C(CSc1nc2ccccc2n1CCc1ccccc1)NC1CC1,inactive: 101%
3,CCNc1c2c3c(cccc3n(C)c1=O)C(=O)c1ccccc1-2,inactive: 116%
4,CN(C)c1ncc(C2=C(Cl)C(=O)C(N3CCCC3)=C(Cl)C2=O)s1,active: 41.1%
5,O=C(O)CSc1nnc(-c2ccccc2Br)n1-c1cccc(C(F)(F)F)c1,inconclusive: 97.8%
6,CCOc1ccc(NC(=S)N(CCOC)C(C)c2ccco2)cc1 (centres undefined),inconclusive: 81.1%
7,Cc1cc(=O)c(C(=O)O)nn1-c1ccccc1,inactive: 103%
8,O=C(CNC(=S)N(Cc1ccccc1)Cc1cccnc1)NCCN1CCOCC1,inactive: 105%
9,CCOC(=O)C(=CNNc1ccsc1C(=O)OC)C(=O)OCC,inconclusive: 40.1%
10,CCO[C@@H]1OC(C(N)=O)=C[C@H](c2coc3ccccc3c2=O)[C@H]1CCCO,inconclusive: 118%
11,O=C(Nc1ccc2oc(-c3ccccc3F)nc2c1)c1ccco1,inconclusive: 122%
12,CC(C)(C)S(=O)(=O)c1cnc2c(-c3ccsc3)cnn2c1N,inconclusive: 118%
13,O=[N+]([O-])c1ccc(N/N=C2\CC3CC=CC23)c([N+](=O)[O-])c1 (centres undefined),inconclusive: 97.9%
14,Cc1cc(=O)oc2cc(OCC(=O)OCC(=O)Nc3ccccc3Br)ccc12,inconclusive: 116%
15,O=C(O)CCC(=O)NCC(=O)c1ccc(F)cc1,inconclusive: 112%
16,O=C(CCC1CCCN(C(=O)c2ccsc2)C1)N1CCN(c2ccccn2)CC1 (centres undefined),inconclusive: 83%
17,O=C(NC(=S)Nc1ccccc1[N+](=O)[O-])c1ccccc1Cl,inconclusive: 75.7%
18,CC1CC(C#N)N(N(C)C)C1=C(C#N)C#N (centres undefined),inconclusive: 26.9%
19,CC(C)(C)C(=O)OCc1nc(-c2ccc(Cl)cc2)cs1,inconclusive: 114%

# Gathered by group: the compounds so far containing a tert-butyl group
row,SMILES,binding response (% of control)
12,CC(C)(C)S(=O)(=O)c1cnc2c(-c3ccsc3)cnn2c1N,inconclusive: 118%
19,CC(C)(C)C(=O)OCc1nc(-c2ccc(Cl)cc2)cs1,inconclusive: 114%
